A: 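Whole-parasite assay of Trypanosoma brucei over 72 hours; the read-out is not stated. Compounds at 30 µM. Higher reads as stronger inhibition (inferred: compounds with an IC50 in retests scored well above the rest). Values scatter widely below zero; nearly all retest evidence comes from the higher of the two concentrations used. About 64,000 compounds were tested under these conditions; 1.5% (about 940) showed 50% or more at least once.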
B: 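Assay of Toxoplasma gondii numbers, read through their beta-galactosidase reporter with a colour substrate. Tested at 10 µM. Higher reads as fewer parasites (inferred from which compounds were picked for retests). About 67,000 compounds were tested under these conditions; 0.38% (about 260) showed 50% or more at least once.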
C: 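Cell assay of Leishmania donovani living inside macrophages; the read-out is not stated. Compounds at 30 µM. Higher reads as stronger inhibition (inferred: compounds with an IC50 in retests scored well above the rest). About 69,000 compounds were tested under these conditions; 1.5% (about 1,000) showed 50% or more at least once.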

Each number is a percent effect as filed.
The record does not define 0% and 100%; most values in the screen are far below 50% and negative numbers occur (in some assays of this library far below -100).
This is an unselected part of the compounds tested.
A dash means the value is not listed here; it may have been measured.

compound | A | B | C
COC(=O)c1ccc(S(=O)(=O)N2CCCn3ncnc32)s1 | -32.53% | 19.87% | 8.678%
CCCN(CC(=O)OC)C(=O)c1sc(C)nc1C | -73.01% | -11.69% | 11.39%
CCc1ccccc1CNC(=O)CCc1cnn(C)c1 | - | -9.19% | 5.699%
COC[C@H]1CCCN1c1nccc(-c2cnn(-c3ccccc3C)c2)n1 | 99.85% | 17.81% | 41.43%
Cc1cccnc1CN1CCN(C(=O)c2cc(Cl)c[nH]c2=O)CC1 | -30.97% | -0.8646% | 35.3%
Nc1cc(CC2COc3ccccc3C2)ccn1 (stereo not shown) | -31.28% | 7.005% | -5.482%
CN(CCOc1ccc(Cl)cc1)Cc1ccc(S(=O)(=O)N(C)C)o1 | -22.42% | 14.16% | 9.882%
COc1cccc(O)c1CN1CCCC(Nc2cccc(F)c2)C1 (stereo not shown) | -7.596% | -0.4058% | 8.242%
Cc1cc(C)n(C2CCCN(C(=O)c3ccc4c(c3)COC4)C2)n1 (stereo not shown) | - | 24.57% | -16.26%
Cc1cc(C)n(CCCNC(=O)C(C)NC(=O)CC2CCCCC2)n1 (stereo not shown) | -8.636% | 9.023% | -0.8127%
OCC1(CC2CC2)CCCN(Cc2ccc(C(F)(F)F)nc2)C1 (stereo not shown) | -7.64% | 3.059% | 14.05%
COCCN1CCC2(COCc3c(C)nc(N(C)C)nc32)C1 (stereo not shown) | -136.3% | 3.653% | -17.15%
CC(C)[C@@H]1CN(C(=O)C2(c3ccccc3)CCN(C)CC2)C[C@H]1N(C)C | 30.76% | -6.622% | 4.724%
CC(C1CC1)n1nccc1NC(=O)CN(C)C(=O)OC(C)(C)C (stereo not shown) | -11.85% | -3.335% | -11.07%
O=C(O)C(F)(F)F.O=C(O)C(F)(F)F.[H][C@]12CCN(c3ncccn3)[C@@]1([H])CC[C@H](COCc1cccnc1)O2 | -4.308% | 7.419% | 12.89%
CCn1ccnc1CN(C)c1cc(C2CCCNC2)nc(C)n1 (stereo not shown) | -13.51% | -3.745% | -6.202%
CC(C)N(C)C(=O)c1ccc(Cl)c(NC(=O)C2CCC2)c1 | -4.093% | 13.93% | -20.24%

2 of the entries, repeated:

compound	A	B	C
Nc1cc(CC2COc3ccccc3C2)ccn1 (stereo not shown)	-31.28%	7.005%	-5.482%
CCn1ccnc1CN(C)c1cc(C2CCCNC2)nc(C)n1 (stereo not shown)	-13.51%	-3.745%	-6.202%

Measurements from “University of Dundee, Small-Polar-MMV Screening Library” (2021), ChEMBL document CHEMBL3988442.